At least one compound was matched to its structure with a doubt left.
Experiments:
Type in all cases: biochemical
[1] = tested on: WT KRAS-BRAF complex; test: WT KRAS-BRAF with CYPA interaction assay (TR-FRET)
Experimental: (§1) In this example, TR-FRET was used to measure the compound or compound-CYPA dependent disruption of the KRAS G12V-BRAF complex to assess inhibition efficacy. The IC50 ratio between WT KRAS/HRAS/NRAS and KRAS G12V mutant was calculated as selective index, which indicated tolerability and safety profile. Disruption of WT KRAS/HRAS/NRAS-BRAF complex by compounds was detected respectively. In assay buffer containing 25 mM HEPES (PH-7.4,4-(2-hydroxyethyl)-1-piperazineethanesulfonic acid, Thermo, 15630080), 0.002% Tween20, 0.1% BSA, 100 mM NaCl, 5 mM MgCl2, 10 μM GMPPNP (Guanosine 5′-[β,γ-imido]triphosphate trisodium salt hydrate, Sigma, G0635), tagless CYPA and GMPPNP loaded 6His-RAS proteins, and GST-BRAF^RBD were mixed in a well of a 384-well assay plate at final concentrations of 50 nM, 6.25 nM and 1 nM, respectively. Compound was present in plate wells as a 16-point 3-fold dilution series starting at a final concentration of 10 μM and incubated for 3 hours. A mixture of MAb Anti-6His-XL665 (Cisbio, 61HISXLB) and Mab anti-GST-TB cryptate (Cisbio, 61GSTTLB) was then added at a final concentration of 6.67 nM and 0.21 nM, respectively, and the plate was incubated for an additional 1.5 hours. TR-FRET signal was read on a PHERstar FSX microplate reader (Ex320 nm, Em 665/615 nm). […]

[2] = tested on: WT NRAS-BRAF complex; test: WT NRAS-BRAF with CYPA interaction assay (TR-FRET)
Experimental: as §1

[3] = tested on: WT HRAS-BRAF complex; test: WT HRAS-BRAF with CYPA interaction assay (TR-FRET)
Experimental: as §1

Structure (SMILES): CCn1c(-c2cc(N3CCN(C)CC3)cnc2[C@H](C)OC)c2c3cc(ccc31)-c1csc(n1)C[C@H](NC(=O)[C@H]1C[C@@H]1C)C(=O)N1CCC[C@H](N1)C(=O)OCC(C)(C)O2 [Example A122, reference compound]
- Selectivity Index (IC50 ratio) WT KRAS/KRAS G12V [1]: 2.0
- Selectivity Index (IC50 ratio) WT NRAS/KRAS G12V [2]: 1.3
- Selectivity Index (IC50 ratio) WT HRAS/KRAS G12V [3]: 1.3

Structure (SMILES): CCn1c(-c2cc(N3CCN(C)CC3)cnc2[C@H](C)OC)c2c3cc(ccc31)-c1csc(n1)C[C@H](NC(=O)[C@H]1[C@H](C)[C@@H]1C)C(=O)N1CCC[C@H](N1)C(=O)OCC(C)(C)C2 [Example A252]
- Selectivity Index (IC50 ratio) WT KRAS/KRAS G12V [1]: 2.0
- Selectivity Index (IC50 ratio) WT NRAS/KRAS G12V [2]: 2.1
- Selectivity Index (IC50 ratio) WT HRAS/KRAS G12V [3]: 2.6
